The supplement of paper PMC10849652
The other results are listed elsewhere or left out.

Sequences of proteins named here, by UniProt entry; tags and fusion partners are left off. A change or cut given only in a name is not applied to a line headed by its entry.
UniProt Q14566: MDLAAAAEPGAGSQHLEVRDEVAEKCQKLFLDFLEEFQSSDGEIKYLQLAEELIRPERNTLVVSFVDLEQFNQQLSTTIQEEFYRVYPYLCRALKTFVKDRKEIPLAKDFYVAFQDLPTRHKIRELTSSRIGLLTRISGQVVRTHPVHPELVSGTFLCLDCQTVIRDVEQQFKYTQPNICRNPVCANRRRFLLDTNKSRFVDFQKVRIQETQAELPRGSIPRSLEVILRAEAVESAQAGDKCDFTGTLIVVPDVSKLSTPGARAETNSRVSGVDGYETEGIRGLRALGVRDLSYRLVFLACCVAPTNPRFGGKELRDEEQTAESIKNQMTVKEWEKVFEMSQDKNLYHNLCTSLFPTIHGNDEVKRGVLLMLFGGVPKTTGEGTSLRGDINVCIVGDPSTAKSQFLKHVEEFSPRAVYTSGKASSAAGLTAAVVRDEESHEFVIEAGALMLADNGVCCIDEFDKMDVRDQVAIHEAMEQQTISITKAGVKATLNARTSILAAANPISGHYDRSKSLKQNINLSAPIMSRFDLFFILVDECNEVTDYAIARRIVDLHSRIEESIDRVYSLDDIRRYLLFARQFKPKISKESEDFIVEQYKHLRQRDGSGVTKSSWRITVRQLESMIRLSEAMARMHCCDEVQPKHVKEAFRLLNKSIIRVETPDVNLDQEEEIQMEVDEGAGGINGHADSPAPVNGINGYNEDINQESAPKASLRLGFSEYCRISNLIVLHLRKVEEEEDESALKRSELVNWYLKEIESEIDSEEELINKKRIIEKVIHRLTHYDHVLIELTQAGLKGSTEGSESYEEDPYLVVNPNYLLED
UniProt Q96RQ3: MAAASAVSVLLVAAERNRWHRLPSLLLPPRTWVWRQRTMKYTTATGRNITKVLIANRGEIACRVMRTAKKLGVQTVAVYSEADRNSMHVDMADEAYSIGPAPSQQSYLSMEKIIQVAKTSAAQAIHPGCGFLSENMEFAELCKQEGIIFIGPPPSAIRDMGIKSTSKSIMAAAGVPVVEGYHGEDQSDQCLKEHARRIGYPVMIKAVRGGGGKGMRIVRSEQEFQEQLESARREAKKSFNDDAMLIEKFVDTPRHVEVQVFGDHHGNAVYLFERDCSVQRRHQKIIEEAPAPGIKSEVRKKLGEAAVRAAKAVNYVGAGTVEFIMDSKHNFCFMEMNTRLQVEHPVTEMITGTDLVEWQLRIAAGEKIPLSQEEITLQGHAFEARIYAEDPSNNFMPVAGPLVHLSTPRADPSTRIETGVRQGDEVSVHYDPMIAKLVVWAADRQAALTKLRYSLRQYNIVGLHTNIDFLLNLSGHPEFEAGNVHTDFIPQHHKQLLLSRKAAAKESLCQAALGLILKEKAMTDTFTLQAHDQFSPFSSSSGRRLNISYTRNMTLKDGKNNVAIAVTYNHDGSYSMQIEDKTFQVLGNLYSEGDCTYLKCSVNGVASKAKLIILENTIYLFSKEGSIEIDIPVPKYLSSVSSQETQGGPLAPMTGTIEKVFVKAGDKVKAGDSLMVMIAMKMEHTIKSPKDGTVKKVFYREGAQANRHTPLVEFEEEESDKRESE
UniProt Q8IWA4: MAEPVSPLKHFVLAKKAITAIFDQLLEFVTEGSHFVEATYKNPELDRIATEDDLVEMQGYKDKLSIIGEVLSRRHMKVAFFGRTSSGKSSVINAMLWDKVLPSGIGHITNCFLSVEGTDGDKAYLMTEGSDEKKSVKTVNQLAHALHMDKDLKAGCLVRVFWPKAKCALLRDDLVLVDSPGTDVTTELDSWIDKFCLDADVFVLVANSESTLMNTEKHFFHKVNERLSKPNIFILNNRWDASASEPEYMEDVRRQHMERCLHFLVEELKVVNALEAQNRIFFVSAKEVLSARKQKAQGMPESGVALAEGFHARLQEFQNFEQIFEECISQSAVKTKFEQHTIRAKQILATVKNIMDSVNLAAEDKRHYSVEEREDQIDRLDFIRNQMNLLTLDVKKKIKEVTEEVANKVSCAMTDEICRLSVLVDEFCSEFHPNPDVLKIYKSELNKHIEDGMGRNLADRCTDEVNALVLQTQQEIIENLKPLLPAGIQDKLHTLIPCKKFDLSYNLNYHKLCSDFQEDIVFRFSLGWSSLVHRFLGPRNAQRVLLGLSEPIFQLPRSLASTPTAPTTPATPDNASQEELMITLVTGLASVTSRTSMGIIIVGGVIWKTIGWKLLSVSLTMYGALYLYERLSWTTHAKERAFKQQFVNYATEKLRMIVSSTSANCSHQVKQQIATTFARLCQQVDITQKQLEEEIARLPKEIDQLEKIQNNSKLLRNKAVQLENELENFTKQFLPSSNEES
UniProt Q8NE86: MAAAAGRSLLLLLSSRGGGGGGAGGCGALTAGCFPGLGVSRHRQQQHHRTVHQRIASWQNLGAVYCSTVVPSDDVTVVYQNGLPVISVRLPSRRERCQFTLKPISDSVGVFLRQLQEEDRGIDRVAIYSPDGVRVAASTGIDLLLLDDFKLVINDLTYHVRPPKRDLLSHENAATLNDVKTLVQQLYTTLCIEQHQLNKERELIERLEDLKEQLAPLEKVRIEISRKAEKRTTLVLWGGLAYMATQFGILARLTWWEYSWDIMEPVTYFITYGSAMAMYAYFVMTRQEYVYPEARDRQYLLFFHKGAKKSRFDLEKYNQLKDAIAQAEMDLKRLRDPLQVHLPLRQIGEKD
UniProt Q9GZY8: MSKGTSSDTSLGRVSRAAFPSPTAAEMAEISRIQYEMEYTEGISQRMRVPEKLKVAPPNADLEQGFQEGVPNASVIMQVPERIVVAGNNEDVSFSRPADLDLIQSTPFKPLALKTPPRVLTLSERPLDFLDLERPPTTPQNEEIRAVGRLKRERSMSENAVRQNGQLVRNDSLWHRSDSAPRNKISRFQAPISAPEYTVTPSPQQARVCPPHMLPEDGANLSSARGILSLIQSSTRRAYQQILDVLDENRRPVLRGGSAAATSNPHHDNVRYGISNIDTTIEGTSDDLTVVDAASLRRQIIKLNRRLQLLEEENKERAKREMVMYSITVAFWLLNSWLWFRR
UniProt Q7Z434: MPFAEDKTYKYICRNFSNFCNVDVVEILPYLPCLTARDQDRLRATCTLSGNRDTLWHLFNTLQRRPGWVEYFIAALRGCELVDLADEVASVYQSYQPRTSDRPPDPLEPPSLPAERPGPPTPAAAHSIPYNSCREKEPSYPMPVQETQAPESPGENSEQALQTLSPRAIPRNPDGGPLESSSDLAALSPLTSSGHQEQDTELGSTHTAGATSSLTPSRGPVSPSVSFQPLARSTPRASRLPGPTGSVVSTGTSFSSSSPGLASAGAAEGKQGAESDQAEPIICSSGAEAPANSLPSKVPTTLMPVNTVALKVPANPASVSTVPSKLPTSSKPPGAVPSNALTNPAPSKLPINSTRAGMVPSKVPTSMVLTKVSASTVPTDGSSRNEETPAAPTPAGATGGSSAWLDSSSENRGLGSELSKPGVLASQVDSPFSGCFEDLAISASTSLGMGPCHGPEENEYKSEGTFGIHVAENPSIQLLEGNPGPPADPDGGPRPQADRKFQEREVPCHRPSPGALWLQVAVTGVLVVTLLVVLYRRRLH
UniProt Q14728: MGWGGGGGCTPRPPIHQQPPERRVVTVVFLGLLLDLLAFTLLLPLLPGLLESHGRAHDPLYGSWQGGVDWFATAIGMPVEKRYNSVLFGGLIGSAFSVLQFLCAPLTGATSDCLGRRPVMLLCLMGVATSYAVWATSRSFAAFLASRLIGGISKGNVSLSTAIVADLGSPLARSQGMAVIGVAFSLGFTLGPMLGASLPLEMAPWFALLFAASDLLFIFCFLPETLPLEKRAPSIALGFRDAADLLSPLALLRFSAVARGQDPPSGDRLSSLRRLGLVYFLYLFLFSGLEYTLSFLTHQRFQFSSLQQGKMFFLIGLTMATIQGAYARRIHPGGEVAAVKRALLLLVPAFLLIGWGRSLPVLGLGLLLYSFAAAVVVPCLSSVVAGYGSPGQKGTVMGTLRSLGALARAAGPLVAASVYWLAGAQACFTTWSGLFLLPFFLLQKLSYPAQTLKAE
UniProt P43243: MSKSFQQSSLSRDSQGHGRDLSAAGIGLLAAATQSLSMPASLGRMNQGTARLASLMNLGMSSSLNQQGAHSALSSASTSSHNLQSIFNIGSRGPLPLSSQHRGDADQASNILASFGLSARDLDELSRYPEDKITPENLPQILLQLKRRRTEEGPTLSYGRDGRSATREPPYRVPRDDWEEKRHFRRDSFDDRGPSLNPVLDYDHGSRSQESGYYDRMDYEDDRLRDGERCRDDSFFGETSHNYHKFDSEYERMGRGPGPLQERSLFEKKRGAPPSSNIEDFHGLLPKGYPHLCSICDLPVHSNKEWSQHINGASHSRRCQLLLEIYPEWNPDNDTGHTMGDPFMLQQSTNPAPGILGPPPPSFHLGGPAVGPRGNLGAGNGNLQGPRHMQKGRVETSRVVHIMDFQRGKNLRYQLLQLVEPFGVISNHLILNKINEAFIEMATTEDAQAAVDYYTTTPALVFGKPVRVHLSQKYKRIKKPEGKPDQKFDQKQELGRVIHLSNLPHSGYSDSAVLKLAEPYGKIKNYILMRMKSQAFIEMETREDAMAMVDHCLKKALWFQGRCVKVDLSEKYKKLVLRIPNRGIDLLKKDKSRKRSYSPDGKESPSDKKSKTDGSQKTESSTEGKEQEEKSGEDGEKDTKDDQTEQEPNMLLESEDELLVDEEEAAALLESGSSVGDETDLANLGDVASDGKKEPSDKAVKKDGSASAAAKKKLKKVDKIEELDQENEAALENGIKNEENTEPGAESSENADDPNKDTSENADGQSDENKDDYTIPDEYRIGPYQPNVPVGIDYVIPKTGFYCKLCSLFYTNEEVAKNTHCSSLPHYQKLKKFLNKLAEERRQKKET
UniProt P50579: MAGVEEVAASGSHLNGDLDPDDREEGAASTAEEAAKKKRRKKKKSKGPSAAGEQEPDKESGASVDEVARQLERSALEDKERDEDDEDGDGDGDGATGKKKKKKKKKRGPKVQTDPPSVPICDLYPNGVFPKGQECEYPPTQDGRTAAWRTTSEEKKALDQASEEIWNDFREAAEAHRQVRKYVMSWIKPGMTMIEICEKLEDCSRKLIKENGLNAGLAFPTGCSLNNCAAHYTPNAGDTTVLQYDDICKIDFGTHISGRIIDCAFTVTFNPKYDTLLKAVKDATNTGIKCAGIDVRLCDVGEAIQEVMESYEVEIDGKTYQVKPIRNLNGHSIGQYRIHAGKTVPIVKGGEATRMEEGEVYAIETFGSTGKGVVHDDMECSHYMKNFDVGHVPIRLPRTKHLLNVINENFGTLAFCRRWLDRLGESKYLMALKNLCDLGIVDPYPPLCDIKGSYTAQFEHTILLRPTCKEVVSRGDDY
UniProt Q15528: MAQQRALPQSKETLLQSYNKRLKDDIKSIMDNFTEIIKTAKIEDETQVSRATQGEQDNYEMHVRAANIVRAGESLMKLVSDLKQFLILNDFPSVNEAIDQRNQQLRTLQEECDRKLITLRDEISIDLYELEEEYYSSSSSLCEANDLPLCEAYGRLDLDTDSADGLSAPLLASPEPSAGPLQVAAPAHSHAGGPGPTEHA
UniProt Q9BTT4: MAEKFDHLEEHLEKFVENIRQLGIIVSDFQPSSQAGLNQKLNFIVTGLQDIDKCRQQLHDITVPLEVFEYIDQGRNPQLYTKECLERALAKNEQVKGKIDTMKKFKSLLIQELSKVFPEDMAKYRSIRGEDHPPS
UniProt O95140: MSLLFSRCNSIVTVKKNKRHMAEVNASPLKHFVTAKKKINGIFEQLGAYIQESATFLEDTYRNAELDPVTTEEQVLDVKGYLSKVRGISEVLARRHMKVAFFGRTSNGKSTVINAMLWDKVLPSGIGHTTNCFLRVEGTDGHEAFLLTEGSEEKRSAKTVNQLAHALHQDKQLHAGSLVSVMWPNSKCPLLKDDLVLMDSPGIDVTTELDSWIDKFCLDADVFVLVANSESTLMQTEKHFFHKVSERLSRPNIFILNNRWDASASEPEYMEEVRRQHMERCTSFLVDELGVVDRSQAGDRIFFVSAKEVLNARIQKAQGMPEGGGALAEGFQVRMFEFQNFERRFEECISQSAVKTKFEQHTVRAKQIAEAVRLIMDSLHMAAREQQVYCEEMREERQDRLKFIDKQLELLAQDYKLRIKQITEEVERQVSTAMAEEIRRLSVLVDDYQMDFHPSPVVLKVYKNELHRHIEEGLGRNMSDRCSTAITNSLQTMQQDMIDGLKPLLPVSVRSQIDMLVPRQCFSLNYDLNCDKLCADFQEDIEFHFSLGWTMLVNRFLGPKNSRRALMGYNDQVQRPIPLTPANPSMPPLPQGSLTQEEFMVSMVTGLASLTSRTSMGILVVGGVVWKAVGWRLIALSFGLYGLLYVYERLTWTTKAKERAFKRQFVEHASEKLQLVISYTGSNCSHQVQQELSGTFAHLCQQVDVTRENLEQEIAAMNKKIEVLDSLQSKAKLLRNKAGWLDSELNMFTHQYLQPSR

How the values were obtained:
Assay in all cases: log2 fold change, soluble protein after heating vs DMSO (PISA); higher = thermal stabilisation; K562 lysate, 10 uM; active = over 0.2 and 3.5 SD of the protein, either way, in both replicates (recomputed)
vemurafenib = compound: CCCS(=O)(=O)Nc1ccc(F)c(C(=O)c2c[nH]c3ncc(-c4ccc(Cl)cc4)cc23)c1F [vemurafenib]
Procedure, shortened: (§1)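 Thermal stability, expressed as log-two fold change relative to solvent controls, is given from duplicates. Crude K562 extract in PBS pH 7.4 with 1 mM MgCl2, at 1 mg/mL protein, was treated with 10 μM compound for 30 min and heated in aliquots for 3 min across 48°C-58°C. After pooling, adjustment to 0.5% NP-40 at 4°C and centrifugation at 21,000xg for 90 min, supernatant protein was measured by TMTpro 16plex LC-MS/MS with channel sums equalised.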

[1] = compound: CCCS(=O)(=O)Nc1ccc(F)c(C(=O)c2c[nH]c3ncc(Cl)cc23)c1F
Procedure, shortened: as §1

barasertib = compound: CCN(CCCOc1ccc2c(Nc3cc(CC(=O)Nc4cccc(F)c4)[nH]n3)ncnc2c1)CCOP(=O)(O)O [barasertib]
Procedure, shortened: as §1

[2] = compound: CC[C@@H]1C(=O)N(C)c2cnc(Nc3ccc(C(=O)NC4CCN(C)CC4)cc3OC)nc2N1C1CCCC1
Procedure, shortened: as §1

volasertib = compound: CC[C@@H]1C(=O)N(C)c2cnc(Nc3ccc(C(=O)N[C@H]4CC[C@H](N5CCN(CC6CC6)CC5)CC4)cc3OC)nc2N1C(C)C [volasertib]
Procedure, shortened: as §1

[3] = compound: CCn1c(C(=O)N(C2CC2)C2CC2)cc2c3c(ncn3C)c(Nc3cc(C)n(C)n3)nc21
Procedure, shortened: as §1

[4] = compound: CCn1cc(-c2ccnc3[nH]c(-c4cccc(CN(C)C)c4)cc23)c(-c2ccc(NC(=O)N(C)C)cc2)n1
Procedure, shortened: as §1

[5] = compound: CN1CCC(CNc2ccc3ncc(-c4cccc(OC(F)(F)F)c4)n3n2)CC1
Procedure, shortened: as §1

saracatinib = compound: CN1CCN(CCOc2cc(OC3CCOCC3)c3c(Nc4c(Cl)ccc5c4OCO5)ncnc3c2)CC1 [saracatinib]
Procedure, shortened: as §1

sotrastaurin = compound: CN1CCN(c2nc(C3=C(c4c[nH]c5ccccc45)C(=O)NC3=O)c3ccccc3n2)CC1 [sotrastaurin]
Procedure, shortened: as §1

alvocidib = compound: CN1CC[C@H](c2c(O)cc(O)c3c(=O)cc(-c4ccccc4Cl)oc23)[C@H](O)C1 [alvocidib]
Procedure, shortened: as §1

Tubastatin A = compound: CN1CCc2c(c3ccccc3n2Cc2ccc(C(=O)NO)cc2)C1 [Tubastatin A]
Procedure, shortened: as §1

[6] = compound: CNC(=O)C1=CC=CC=C1NC2=NC(=NC=C2Cl)NC3=C(C=C(C=C3)N4CCOCC4)OC
Procedure, shortened: as §1

defactinib = compound: CNC(=O)c1ccc(Nc2ncc(C(F)(F)F)c(NCc3nccnc3N(C)S(C)(=O)=O)n2)cc1 [defactinib]
Procedure, shortened: as §1

[7] = compound: CNc1nc(-c2ccc3c(N)n[nH]c3c2)cc(N2C[C@@H](C(=O)NC3CCCCC3)CC[C@H]2C)n1
Procedure, shortened: as §1

encorafenib = compound: COC(=O)N[C@@H](C)CNc1nccc(-c2cn(C(C)C)nc2-c2cc(Cl)cc(NS(C)(=O)=O)c2F)n1 [encorafenib]
Procedure, shortened: as §1

[8] = compound: COC(=O)[C@H](CCSC)NC(=O)C1=C(C=C(C=C1)NC[C@H](CS)N)C2=CC=CC=C2
Procedure, shortened: as §1

alisertib = compound: COc1cc(Nc2ncc3c(n2)-c2ccc(Cl)cc2C(c2c(F)cccc2OC)=NC3)ccc1C(=O)O [alisertib]
Procedure, shortened: as §1

[9] = compound: COc1cc2nc(-c3cc(F)ccc3O)nc(N[C@@H]3CNC[C@H]3C(C)(C)O)c2cc1OC
Procedure, shortened: as §1

gefitinib = compound: COc1cc2ncnc(Nc3ccc(F)c(Cl)c3)c2cc1OCCCN1CCOCC1 [gefitinib]
Procedure, shortened: as §1

Measured: log2 fold change

MCM6 (UniProt Q14566)
inactive: vemurafenib -0.054 | [1] 0.011 | barasertib 0.001 | [2] -0.101 | volasertib -0.054 | [3] 0.018 | [4] -0.011 | [5] -0.022 | saracatinib 0.022 | sotrastaurin 0.016 | alvocidib -0.022 | Tubastatin A -0.015 | [6] 0.036 | defactinib 0.011 | [7] -0.029 | encorafenib 0.015 | [8] 0.095 | alisertib 0.036 | [9] -0.005 | gefitinib 0.015

MCCC1 (UniProt Q96RQ3)
inactive: vemurafenib 0.065 | [1] 0.009 | barasertib 0.015 | [2] 0.005 | volasertib -0.034 | [3] -0.025 | [4] 0.139 | [5] -0.059 | saracatinib 0.028 | sotrastaurin 0.054 | alvocidib 0.063 | Tubastatin A -0.036 | [6] 0.003 | defactinib -0.002 | [7] -0.025 | encorafenib 0.012 | [8] -0.057 | alisertib 0 | [9] 0.001 | gefitinib 0.017

MFN1 (UniProt Q8IWA4)
inactive: vemurafenib -0.05 | [1] 0.026 | barasertib 0.069 | [2] -0.059 | volasertib 0.011 | [3] 0.045 | [4] -0.154 | [5] -0.273 | saracatinib 0.007 | sotrastaurin 0.024 | alvocidib 0.022 | Tubastatin A -0.028 | [6] 0.02 | defactinib -0.003 | [7] 0.029 | encorafenib 0 | [8] -0.298 | alisertib -0.202 | [9] -0.002 | gefitinib -0.308

MCU (UniProt Q8NE86)
inactive: vemurafenib 0.011 | [1] 0.017 | barasertib 0.077 | [2] -0.085 | volasertib -0.033 | [3] -0.049 | [4] -0.062 | [5] -0.099 | saracatinib 0.04 | sotrastaurin 0.017 | alvocidib 0.011 | Tubastatin A 0.045 | [6] 0.026 | defactinib 0.037 | [7] -0.067 | encorafenib 0.016 | [8] -0.035 | alisertib 0.01 | [9] -0.063 | gefitinib -0.091

MFF isoform 2 (UniProt Q9GZY8)
active: [4] -0.234
inactive: vemurafenib 0.019 | [1] 0.027 | barasertib 0.027 | [2] 0.032 | volasertib -0.014 | [3] 0.035 | [5] 0.036 | saracatinib 0.011 | sotrastaurin -0.044 | alvocidib -0.046 | Tubastatin A -0.038 | [6] -0.052 | defactinib 0.027 | [7] 0.024 | encorafenib 0.068 | [8] -0.113 | alisertib 0.042 | [9] -0.075 | gefitinib 0.048

MAVS (UniProt Q7Z434)
inactive: vemurafenib 0.026 | [1] 0.029 | barasertib 0.055 | [2] 0.043 | volasertib 0.005 | [3] -0.02 | [4] -0.096 | [5] 0.001 | saracatinib -0.01 | sotrastaurin 0.002 | alvocidib -0.001 | Tubastatin A -0.007 | [6] 0.031 | defactinib -0.001 | [7] 0.073 | encorafenib 0.02 | [8] -0.208 | alisertib 0.008 | [9] -0.034 | gefitinib -0.03

MED1 (UniProt Q15648)
inactive: vemurafenib 0.033 | [1] 0.031 | barasertib -0.003 | [2] 0.049 | volasertib -0.013 | [3] -0.016 | [4] 0.008 | [5] -0.032 | saracatinib 0.03 | sotrastaurin -0.026 | alvocidib -0.01 | Tubastatin A -0.072 | [6] 0.011 | defactinib -0.038 | [7] 0.047 | encorafenib 0.055 | [8] -0.036 | alisertib -0.011 | [9] 0 | gefitinib 0.012

Copied from the listing (two entries):
MFF isoform 2 (UniProt Q9GZY8)
active: [4] -0.234
inactive: vemurafenib 0.019 | [1] 0.027 | barasertib 0.027 | [2] 0.032 | volasertib -0.014 | [3] 0.035 | [5] 0.036 | saracatinib 0.011 | sotrastaurin -0.044 | alvocidib -0.046 | Tubastatin A -0.038 | [6] -0.052 | defactinib 0.027 | [7] 0.024 | encorafenib 0.068 | [8] -0.113 | alisertib 0.042 | [9] -0.075 | gefitinib 0.048

MAVS (UniProt Q7Z434)
inactive: vemurafenib 0.026 | [1] 0.029 | barasertib 0.055 | [2] 0.043 | volasertib 0.005 | [3] -0.02 | [4] -0.096 | [5] 0.001 | saracatinib -0.01 | sotrastaurin 0.002 | alvocidib -0.001 | Tubastatin A -0.007 | [6] 0.031 | defactinib -0.001 | [7] 0.073 | encorafenib 0.02 | [8] -0.208 | alisertib 0.008 | [9] -0.034 | gefitinib -0.03

The list continues:

MFSD10 (UniProt Q14728)
inactive: vemurafenib 0.185 | [1] 0.082 | barasertib 0.025 | [2] 0.144 | volasertib -0.019 | [3] -0.055 | [4] -0.198 | [5] 0.162 | saracatinib -0.054 | sotrastaurin -0.056 | alvocidib -0.076 | Tubastatin A 0.122 | [6] 0.004 | defactinib 0 | [7] 0.048 | encorafenib 0.124 | [8] -0.006 | alisertib -0.033 | [9] 0.022 | gefitinib 0.054

MATR3 (UniProt P43243)
inactive: vemurafenib 0.002 | [1] 0.028 | barasertib -0.003 | [2] 0.049 | volasertib -0.018 | [3] 0.015 | [4] 0.074 | [5] 0.02 | saracatinib -0.014 | sotrastaurin 0.02 | alvocidib -0.054 | Tubastatin A -0.094 | [6] 0.02 | defactinib -0.03 | [7] 0.006 | encorafenib 0.092 | [8] -0.015 | alisertib 0.002 | [9] 0.025 | gefitinib 0.046

MERTK (UniProt Q12866)
inactive: vemurafenib 0.062 | [1] -0.067 | barasertib 0.298 | [2] -0.004 | volasertib -0.031 | [3] -0.066 | [4] 0.133 | [5] -0.16 | saracatinib -0.088 | sotrastaurin 0.013 | alvocidib 0.03 | Tubastatin A 0.03 | [6] -0.015 | defactinib -0.023 | [7] -0.045 | encorafenib -0.077 | [8] -0.052 | alisertib -0.013 | [9] -0.03 | gefitinib 0.156

MEAF6 isoform 3 (UniProt Q9HAF1)
inactive: vemurafenib -0.015 | [1] 0.067 | barasertib -0.02 | [2] 0.061 | volasertib 0.023 | [3] 0.03 | [4] -0.103 | [5] 0.051 | saracatinib 0 | sotrastaurin -0.054 | alvocidib -0.077 | Tubastatin A 0.009 | [6] 0.028 | defactinib -0.028 | [7] 0.044 | encorafenib 0.018 | [8] 0.044 | alisertib 0 | [9] -0.014 | gefitinib 0.135

MFSD5 isoform 2 (UniProt Q6N075)
inactive: vemurafenib -0.06 | [1] 0.079 | barasertib 0.051 | [2] 0.194 | volasertib 0.12 | [3] -0.034 | [4] 0.051 | [5] 0.036 | saracatinib 0.113 | sotrastaurin 0.034 | alvocidib -0.04 | Tubastatin A 0.019 | [6] 0.061 | defactinib 0.032 | [7] 0.031 | encorafenib 0.07 | [8] -0.065 | alisertib -0.077 | [9] -0.348 | gefitinib -0.05

METAP2 (UniProt P50579)
inactive: vemurafenib -0.01 | [1] 0.032 | barasertib -0.026 | [2] 0.013 | volasertib 0.01 | [3] -0.044 | [4] 0.023 | [5] 0.082 | saracatinib 0.034 | sotrastaurin -0.008 | alvocidib -0.02 | Tubastatin A -0.017 | [6] 0.019 | defactinib 0.01 | [7] 0.039 | encorafenib -0.003 | [8] -0.017 | alisertib 0.002 | [9] 0.002 | gefitinib -0.102

MED22 isoform 2 (UniProt Q15528)
inactive: vemurafenib -0.037 | [1] 0.01 | barasertib 0.12 | [2] 0 | volasertib 0.058 | [3] -0.05 | [4] -0.025 | [5] -0.128 | saracatinib 0.014 | sotrastaurin -0.013 | alvocidib 0.051 | Tubastatin A 0.008 | [6] 0.026 | defactinib 0.042 | [7] 0.017 | encorafenib 0.115 | [8] -0.079 | alisertib 0.002 | [9] -0.021 | gefitinib -0.047

MED10 (UniProt Q9BTT4)
inactive: vemurafenib 0.037 | [1] 0 | barasertib 0.08 | [2] 0.133 | volasertib 0.066 | [3] -0.009 | [4] 0.107 | [5] -0.059 | saracatinib 0.077 | sotrastaurin -0.015 | alvocidib 0.038 | Tubastatin A 0.041 | [6] 0.042 | defactinib 0.068 | [7] 0.045 | encorafenib 0.11 | [8] -0.185 | alisertib 0.082 | [9] -0.03 | gefitinib -0.045

MFN2 (UniProt O95140)
inactive: vemurafenib 0.035 | [1] -0.024 | barasertib 0.041 | [2] 0.038 | volasertib -0.033 | [3] 0.049 | [4] 0.013 | [5] -0.035 | saracatinib -0.01 | sotrastaurin 0.045 | alvocidib -0.006 | Tubastatin A -0.107 | [6] 0.014 | defactinib 0.058 | [7] -0.034 | encorafenib -0.016 | [8] -0.094 | alisertib 0.004 | [9] 0.023 | gefitinib -0.019
